Results: patent publication US20260355329A1, “PRODRUG LINKER COMPOSITIONS AND METHODS OF USE” (priority 2023, published 2026)
Not every detail of the peptide structures is certain; ends, links or a residue may be inferred. Peptide text beside a SMILES is read from it. * marks the point of attachment. EDDnp = O=[N+]([O-])c1ccc(NCCN*)c([N+](=O)[O-])c1; Mca = COc1ccc2c(CC(=O)*)cc(=O)oc2c1

Test system: A. baumannii periplasmic extract
Assay: Cleavage of MCA-Linker-DNP FRET pairs in A. baumannii periplasmic extract relative to mouse serum
Format: biochemical
Settings: role: substrate; A. baumannii periplasmic extract versus mouse serum, 8 h, 37 °C

## COc1ccc2c(CC(=O)N[C@@H](CC(C)C)C(=O)N[C@@H](CCC(=O)O)C(=O)N[C@@H](Cc3c[nH]cn3)C(=O)N[C@@H](CCC(=O)O)C(=O)N[C@@H](CC(C)C)C(=O)NCC(=O)N[C@@H](CC(N)=O)C(=O)NCCNc3ccc([N+](=O)[O-])cc3[N+](=O)[O-])cc(=O)oc2c1 [LEHELGN] (Mca-LEHELGN-EDDnp)
  rate of cleavage in periplasmic extract / rate of cleavage in serum: 66 fold

## COc1ccc2c(CC(=O)N[C@@H](CC(=O)O)C(=O)N[C@@H](C)C(=O)N[C@H](C(=O)N[C@@H](CC(N)=O)C(=O)NCC(=O)N[C@@H](CCC(=O)O)C(=O)N[C@@H](CS)C(=O)NCCNc3ccc([N+](=O)[O-])cc3[N+](=O)[O-])C(C)C)cc(=O)oc2c1 [DAVNGEC] (Mca-DAVNGEC-EDDnp)
  rate of cleavage in periplasmic extract / rate of cleavage in serum: 21 fold
